Experiment [1] deals with T1, Cysteine-rich angiogenic inducer 61 (CYR61), endogenous (human (endogenous in HeLa, MDA-MB-231, H1299)) (UniProt O00622).
T1 sequence: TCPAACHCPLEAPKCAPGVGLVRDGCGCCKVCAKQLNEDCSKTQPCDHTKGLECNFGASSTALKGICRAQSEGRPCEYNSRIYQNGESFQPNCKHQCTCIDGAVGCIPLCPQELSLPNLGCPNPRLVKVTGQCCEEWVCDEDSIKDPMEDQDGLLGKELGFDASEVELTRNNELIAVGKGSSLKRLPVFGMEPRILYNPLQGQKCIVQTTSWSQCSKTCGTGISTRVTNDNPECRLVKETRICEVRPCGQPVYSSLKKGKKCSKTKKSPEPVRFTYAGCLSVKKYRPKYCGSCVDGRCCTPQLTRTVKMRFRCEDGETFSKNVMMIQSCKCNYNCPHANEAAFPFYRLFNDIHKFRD
In words: co-IP; endogenous proteins; cell lysates (RIPA buffer) of HeLa, for tubulins also MDA-MB-231 and H1299, immunoprecipitated with antibody or IgG overnight at 4 °C, washed with NETN buffer, immunoblot.

Experiment [2] deals with PLK1 N-terminal kinase domain (KD) alone (human). Briefly: co-IP; HeLa cells transfected with CYR61 and PLK1 wild type, deletion mutants or single domains; anti-Myc (Figure 3G) or anti-Flag (Figure 3H) beads; immunoblot. For orientation: In western blotting, separated proteins are transferred to a membrane and probed.
Experiment [3] concerns the target PLK1 C-terminal polo-box domain (PBD) alone (human). Described as above.

These are yes or no findings as the source states them, for the method shown. Binding seen in cells or lysates may run through a third protein. A result given as binding can be weak or reduced; the word gives no strength. For some of these results: Where a sequence is shown, tags or fusion partners need not be part of it.

Consider three molecules from publication PMC11186368.

Regarding α-tubulin, endogenous, the binding entry in experiment [1] is recorded as “binds”. As for β-tubulin, endogenous, the binding result in experiment [1] is “binds”.

B1: Myc-CYR61 wild type (HeLa) (protein, UniProt O00622 25-381)
chain: TCPAACHCPLEAPKCAPGVGLVRDGCGCCKVCAKQLNEDCSKTQPCDHTKGLECNFGASSTALKGICRAQSEGRPCEYNSRIYQNGESFQPNCKHQCTCIDGAVGCIPLCPQELSLPNLGCPNPRLVKVTGQCCEEWVCDEDSIKDPMEDQDGLLGKELGFDASEVELTRNNELIAVGKGSSLKRLPVFGMEPRILYNPLQGQKCIVQTTSWSQCSKTCGTGISTRVTNDNPECRLVKETRICEVRPCGQPVYSSLKKGKKCSKTKKSPEPVRFTYAGCLSVKKYRPKYCGSCVDGRCCTPQLTRTVKMRFRCEDGETFSKNVMMIQSCKCNYNCPHANEAAFPFYRLFNDIHKFRD
Take B1: the binding entry in experiment [2] and in experiment [3] was “binds” throughout.
